Experimental data as given in the supplement of paper PMC10849652.
The list shows a part of the results.

Chains of the proteins cited; added tags and fusions are not shown. Lines headed by an entry give the natural chain unless they say otherwise; changes in a name come on top.
UniProt O95674: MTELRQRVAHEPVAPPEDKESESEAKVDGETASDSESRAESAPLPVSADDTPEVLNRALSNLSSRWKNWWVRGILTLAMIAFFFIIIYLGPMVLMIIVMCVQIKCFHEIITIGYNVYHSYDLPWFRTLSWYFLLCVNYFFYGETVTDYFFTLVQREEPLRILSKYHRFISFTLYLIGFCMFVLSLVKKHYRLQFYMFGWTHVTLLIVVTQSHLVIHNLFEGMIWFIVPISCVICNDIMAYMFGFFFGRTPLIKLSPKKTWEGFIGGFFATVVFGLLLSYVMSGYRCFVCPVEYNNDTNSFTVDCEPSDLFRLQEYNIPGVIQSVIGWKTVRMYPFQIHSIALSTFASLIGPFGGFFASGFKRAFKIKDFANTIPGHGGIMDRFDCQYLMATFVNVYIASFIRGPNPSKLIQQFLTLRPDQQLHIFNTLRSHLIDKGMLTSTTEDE
UniProt Q9BY43: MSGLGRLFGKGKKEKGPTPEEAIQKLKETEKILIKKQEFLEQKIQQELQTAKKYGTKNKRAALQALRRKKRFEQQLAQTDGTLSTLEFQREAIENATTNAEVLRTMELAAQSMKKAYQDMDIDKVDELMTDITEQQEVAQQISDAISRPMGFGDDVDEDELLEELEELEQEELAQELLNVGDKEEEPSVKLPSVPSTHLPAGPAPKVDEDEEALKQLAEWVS
UniProt Q99618: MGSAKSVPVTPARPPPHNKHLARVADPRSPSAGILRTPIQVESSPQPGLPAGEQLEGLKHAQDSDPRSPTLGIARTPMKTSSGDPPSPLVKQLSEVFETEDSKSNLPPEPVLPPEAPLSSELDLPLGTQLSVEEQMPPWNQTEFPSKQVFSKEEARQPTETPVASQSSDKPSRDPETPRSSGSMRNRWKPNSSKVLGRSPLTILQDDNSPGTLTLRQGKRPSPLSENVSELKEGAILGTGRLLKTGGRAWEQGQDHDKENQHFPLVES
UniProt O43633: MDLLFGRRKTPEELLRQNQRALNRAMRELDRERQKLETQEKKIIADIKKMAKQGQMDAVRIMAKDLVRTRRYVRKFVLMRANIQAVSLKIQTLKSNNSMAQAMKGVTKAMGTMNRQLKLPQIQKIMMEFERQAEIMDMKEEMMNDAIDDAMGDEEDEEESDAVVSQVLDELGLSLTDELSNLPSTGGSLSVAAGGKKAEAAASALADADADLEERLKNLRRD
UniProt Q8TD26: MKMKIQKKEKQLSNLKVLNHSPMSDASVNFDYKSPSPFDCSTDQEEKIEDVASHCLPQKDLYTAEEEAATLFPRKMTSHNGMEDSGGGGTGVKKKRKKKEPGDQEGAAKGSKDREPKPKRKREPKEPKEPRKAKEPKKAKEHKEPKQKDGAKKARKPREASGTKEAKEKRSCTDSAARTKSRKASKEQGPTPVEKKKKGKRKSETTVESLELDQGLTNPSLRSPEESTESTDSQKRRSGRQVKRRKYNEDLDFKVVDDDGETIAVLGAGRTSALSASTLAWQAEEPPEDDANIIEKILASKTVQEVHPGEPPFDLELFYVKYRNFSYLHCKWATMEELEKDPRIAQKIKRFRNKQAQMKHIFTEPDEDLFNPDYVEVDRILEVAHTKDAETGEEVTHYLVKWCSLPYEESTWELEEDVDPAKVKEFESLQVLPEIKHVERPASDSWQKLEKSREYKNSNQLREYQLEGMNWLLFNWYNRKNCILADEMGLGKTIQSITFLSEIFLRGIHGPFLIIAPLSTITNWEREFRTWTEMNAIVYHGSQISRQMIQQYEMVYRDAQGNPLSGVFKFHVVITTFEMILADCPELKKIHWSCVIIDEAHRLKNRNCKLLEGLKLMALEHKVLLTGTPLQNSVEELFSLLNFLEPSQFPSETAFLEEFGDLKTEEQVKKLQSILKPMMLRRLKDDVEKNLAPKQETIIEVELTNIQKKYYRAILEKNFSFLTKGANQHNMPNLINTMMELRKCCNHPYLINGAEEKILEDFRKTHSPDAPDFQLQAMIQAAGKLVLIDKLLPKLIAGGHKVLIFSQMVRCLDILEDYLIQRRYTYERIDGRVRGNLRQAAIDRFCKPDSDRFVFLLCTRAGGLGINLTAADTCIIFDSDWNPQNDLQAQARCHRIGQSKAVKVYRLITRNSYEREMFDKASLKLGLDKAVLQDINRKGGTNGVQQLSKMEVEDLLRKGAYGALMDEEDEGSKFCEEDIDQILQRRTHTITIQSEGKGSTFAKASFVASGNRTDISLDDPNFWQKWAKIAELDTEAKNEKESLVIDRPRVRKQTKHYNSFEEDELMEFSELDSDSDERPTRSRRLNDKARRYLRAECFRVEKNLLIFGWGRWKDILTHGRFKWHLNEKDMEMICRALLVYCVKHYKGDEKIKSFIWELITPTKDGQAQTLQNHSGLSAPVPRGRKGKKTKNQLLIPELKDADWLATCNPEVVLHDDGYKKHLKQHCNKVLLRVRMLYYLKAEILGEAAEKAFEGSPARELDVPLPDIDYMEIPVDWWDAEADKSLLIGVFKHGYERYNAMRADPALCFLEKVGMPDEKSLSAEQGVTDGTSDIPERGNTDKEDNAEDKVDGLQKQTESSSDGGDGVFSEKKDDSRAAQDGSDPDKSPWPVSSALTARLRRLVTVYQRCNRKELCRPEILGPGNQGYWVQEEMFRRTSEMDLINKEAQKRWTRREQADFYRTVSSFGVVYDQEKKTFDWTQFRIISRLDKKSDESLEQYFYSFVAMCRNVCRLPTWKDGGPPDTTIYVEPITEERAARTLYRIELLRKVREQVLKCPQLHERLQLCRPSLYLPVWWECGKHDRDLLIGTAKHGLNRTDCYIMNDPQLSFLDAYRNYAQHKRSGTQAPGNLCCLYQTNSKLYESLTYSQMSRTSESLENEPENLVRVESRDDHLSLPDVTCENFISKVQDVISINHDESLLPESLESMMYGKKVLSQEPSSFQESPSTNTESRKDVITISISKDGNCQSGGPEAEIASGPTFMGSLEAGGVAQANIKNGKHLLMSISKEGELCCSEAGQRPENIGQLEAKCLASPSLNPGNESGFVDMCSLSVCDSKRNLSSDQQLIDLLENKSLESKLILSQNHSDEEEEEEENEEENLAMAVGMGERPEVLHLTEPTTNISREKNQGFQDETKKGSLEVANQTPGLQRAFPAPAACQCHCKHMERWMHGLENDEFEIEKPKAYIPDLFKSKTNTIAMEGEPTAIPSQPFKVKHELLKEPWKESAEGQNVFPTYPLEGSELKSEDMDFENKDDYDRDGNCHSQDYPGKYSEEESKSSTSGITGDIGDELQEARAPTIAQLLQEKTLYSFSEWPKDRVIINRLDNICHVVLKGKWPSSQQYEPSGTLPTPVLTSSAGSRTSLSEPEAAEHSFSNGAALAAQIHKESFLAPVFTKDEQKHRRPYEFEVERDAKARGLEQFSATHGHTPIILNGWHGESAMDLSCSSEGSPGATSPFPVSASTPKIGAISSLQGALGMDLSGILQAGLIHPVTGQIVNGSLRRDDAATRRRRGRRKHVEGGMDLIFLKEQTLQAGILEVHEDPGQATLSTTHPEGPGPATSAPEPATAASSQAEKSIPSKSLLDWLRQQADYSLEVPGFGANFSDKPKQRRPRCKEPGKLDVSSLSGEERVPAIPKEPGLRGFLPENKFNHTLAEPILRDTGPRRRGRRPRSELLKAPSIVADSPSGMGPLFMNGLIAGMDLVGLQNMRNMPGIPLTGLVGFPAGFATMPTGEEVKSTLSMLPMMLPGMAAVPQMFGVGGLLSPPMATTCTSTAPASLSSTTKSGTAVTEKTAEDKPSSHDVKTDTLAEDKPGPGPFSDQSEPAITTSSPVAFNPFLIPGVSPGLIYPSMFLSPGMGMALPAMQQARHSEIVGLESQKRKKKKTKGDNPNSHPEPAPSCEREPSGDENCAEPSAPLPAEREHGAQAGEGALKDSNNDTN
UniProt Q00587: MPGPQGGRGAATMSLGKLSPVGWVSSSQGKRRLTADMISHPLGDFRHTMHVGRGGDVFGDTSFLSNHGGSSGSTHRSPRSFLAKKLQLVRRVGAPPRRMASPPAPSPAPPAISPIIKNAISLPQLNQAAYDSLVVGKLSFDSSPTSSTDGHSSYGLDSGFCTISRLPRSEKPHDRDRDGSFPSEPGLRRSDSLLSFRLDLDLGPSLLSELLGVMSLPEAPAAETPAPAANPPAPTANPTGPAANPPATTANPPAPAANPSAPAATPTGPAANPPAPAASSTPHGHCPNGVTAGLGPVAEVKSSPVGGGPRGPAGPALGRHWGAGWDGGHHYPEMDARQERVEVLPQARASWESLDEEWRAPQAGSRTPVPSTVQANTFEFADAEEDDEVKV
UniProt Q9BU64: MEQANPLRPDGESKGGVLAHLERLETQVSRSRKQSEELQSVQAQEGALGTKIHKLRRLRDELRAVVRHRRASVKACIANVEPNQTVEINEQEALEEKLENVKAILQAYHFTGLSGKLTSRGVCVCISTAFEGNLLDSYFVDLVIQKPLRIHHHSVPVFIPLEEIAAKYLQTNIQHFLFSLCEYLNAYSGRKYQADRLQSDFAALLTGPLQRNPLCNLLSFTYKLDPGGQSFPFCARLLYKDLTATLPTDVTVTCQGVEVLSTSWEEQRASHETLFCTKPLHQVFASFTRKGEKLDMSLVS
UniProt P11802: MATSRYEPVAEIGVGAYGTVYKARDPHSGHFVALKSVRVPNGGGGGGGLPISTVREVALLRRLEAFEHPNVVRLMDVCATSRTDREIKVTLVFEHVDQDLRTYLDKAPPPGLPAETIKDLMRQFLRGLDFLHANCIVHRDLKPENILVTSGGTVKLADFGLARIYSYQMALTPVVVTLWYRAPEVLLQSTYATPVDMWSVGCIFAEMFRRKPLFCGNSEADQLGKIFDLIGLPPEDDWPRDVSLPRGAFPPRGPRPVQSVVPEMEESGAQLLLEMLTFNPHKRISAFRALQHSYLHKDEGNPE
UniProt P35790, whole entry, looked up: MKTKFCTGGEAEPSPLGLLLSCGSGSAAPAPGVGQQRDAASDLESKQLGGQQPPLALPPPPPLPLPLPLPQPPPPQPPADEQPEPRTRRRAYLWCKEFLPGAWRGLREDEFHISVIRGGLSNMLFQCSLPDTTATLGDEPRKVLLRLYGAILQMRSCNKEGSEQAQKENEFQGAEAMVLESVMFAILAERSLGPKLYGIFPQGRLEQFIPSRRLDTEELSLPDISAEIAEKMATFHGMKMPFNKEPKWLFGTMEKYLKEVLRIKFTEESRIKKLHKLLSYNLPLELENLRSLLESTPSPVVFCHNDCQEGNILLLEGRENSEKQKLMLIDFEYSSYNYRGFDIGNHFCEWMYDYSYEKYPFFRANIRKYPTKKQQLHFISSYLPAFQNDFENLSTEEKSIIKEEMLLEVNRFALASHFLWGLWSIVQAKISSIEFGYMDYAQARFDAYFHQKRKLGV
UniProt Q00534, whole entry, looked up: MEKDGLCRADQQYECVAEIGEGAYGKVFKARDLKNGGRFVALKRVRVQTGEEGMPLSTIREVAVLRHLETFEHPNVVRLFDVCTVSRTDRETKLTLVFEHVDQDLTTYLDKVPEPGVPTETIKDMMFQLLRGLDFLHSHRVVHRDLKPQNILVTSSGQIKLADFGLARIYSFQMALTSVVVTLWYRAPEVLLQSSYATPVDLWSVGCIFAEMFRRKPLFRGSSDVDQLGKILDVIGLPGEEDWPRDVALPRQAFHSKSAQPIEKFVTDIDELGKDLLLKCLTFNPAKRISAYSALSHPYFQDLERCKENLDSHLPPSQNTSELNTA
UniProt Q8WUX2: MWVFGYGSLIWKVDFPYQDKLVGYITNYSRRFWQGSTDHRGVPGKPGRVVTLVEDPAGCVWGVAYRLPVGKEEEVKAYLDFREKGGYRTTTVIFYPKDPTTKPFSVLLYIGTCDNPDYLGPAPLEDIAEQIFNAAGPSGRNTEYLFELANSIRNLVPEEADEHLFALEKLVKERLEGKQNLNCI
UniProt Q96CF2: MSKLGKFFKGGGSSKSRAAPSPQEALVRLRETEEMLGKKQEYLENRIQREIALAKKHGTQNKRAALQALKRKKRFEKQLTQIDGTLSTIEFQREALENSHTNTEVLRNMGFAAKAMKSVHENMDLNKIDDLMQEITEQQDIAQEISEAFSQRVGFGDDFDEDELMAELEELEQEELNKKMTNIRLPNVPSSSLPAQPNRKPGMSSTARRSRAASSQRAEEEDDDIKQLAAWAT
UniProt O95319: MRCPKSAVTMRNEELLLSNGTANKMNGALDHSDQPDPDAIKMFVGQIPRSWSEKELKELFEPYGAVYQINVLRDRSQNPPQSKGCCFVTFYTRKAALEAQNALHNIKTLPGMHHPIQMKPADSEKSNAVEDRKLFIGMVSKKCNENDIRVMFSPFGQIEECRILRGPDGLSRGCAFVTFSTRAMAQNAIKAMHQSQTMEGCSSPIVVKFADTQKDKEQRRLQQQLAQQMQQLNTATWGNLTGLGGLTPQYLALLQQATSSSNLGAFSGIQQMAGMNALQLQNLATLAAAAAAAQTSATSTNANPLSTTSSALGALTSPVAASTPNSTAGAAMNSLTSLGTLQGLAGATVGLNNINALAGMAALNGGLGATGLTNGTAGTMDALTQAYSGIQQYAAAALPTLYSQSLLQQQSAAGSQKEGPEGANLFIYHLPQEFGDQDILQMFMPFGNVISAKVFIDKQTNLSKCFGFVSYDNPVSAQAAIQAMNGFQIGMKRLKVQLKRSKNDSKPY

Assays:
Assay in all cases: log2 fold change, soluble protein after heating vs DMSO (PISA); higher = thermal stabilisation; K562 cells, 10 uM, 30 min; active = over 0.2 and 3.5 SD of the protein, either way, in both replicates (recomputed)
[1] = compound: CC1=C(C=C(C=C1)NC(=O)C2=CC(=CC=C2)C(C)(C)C#N)NC3=CC4=C(C=C3)N=CN(C4=O)C
In short: (§1)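 Soluble protein was quantified by TMTpro 16plex LC-MS/MS after channel sums were equalised. It was obtained as the supernatant after 21,000xg for 90 min from pooled aliquots of K562 cells (2×10^6 cells/mL, 10 μM compound, 30 min) heated for 3 min across 48°C-58°C and extracted in PBS with 0.5% NP-40 at 4°C. Thermal stability values are relative to control samples and come from duplicates. They are given as log2 fold changes.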

[2] = compound: CC1=C(C=C(C=C1)NC(=O)C2=CC(=CC=C2)N(C)C)NC(=O)C3=CC=C(C=C3)O
In short: as §1

[3] = compound: CC1=CC=C(C=C1)SC2=C3C=C(SC3=CN=C2)C(=O)N
In short: as §1

[4] = compound: CC1=NC(=CC=C1)C2=C(N=C(N2)C(C)(C)C)C3=CC4=NC=CN=C4C=C3
In short: as §1

Nexturastat A = compound: CCCCN(Cc1ccc(C(=O)NO)cc1)C(=O)Nc1ccccc1 [Nexturastat A]
In short: as §1

vemurafenib = compound: CCCS(=O)(=O)Nc1ccc(F)c(C(=O)c2c[nH]c3ncc(-c4ccc(Cl)cc4)cc23)c1F [vemurafenib]
In short: as §1

[5] = compound: CCCS(=O)(=O)Nc1ccc(F)c(C(=O)c2c[nH]c3ncc(Cl)cc23)c1F
In short: as §1

[6] = compound: CCCc1cc(C)[nH]c(=O)c1CNC(=O)c1cc(-c2ccnc(N3CCN(C)CC3)c2)cc2c1cnn2C(C)C
In short: as §1

givinostat = compound: CCN(CC)Cc1ccc2cc(COC(=O)Nc3ccc(C(=O)NO)cc3)ccc2c1 [givinostat]
In short: as §1

barasertib = compound: CCN(CCCOc1ccc2c(Nc3cc(CC(=O)Nc4cccc(F)c4)[nH]n3)ncnc2c1)CCOP(=O)(O)O [barasertib]
In short: as §1

[7] = compound: CC[C@@H]1C(=O)N(C)c2cnc(Nc3ccc(C(=O)NC4CCN(C)CC4)cc3OC)nc2N1C1CCCC1
In short: as §1

volasertib = compound: CC[C@@H]1C(=O)N(C)c2cnc(Nc3ccc(C(=O)N[C@H]4CC[C@H](N5CCN(CC6CC6)CC5)CC4)cc3OC)nc2N1C(C)C [volasertib]
In short: as §1

[8] = compound: CC[C@H](C)N1C=C(C2=C(C=C(C=C21)C3=CN=C(C=C3)N4CCNCC4)C(=O)NCC5=C(C=C(NC5=O)C)C)C
In short: as §1

epoxomicin = compound: CC[C@H](C)[C@@H](C(=O)N[C@@H]([C@@H](C)O)C(=O)N[C@@H](CC(C)C)C(=O)[C@]1(CO1)C)NC(=O)[C@H]([C@@H](C)CC)N(C)C(=O)C [epoxomicin]
In short: as §1

[9] = compound: CCn1c(C(=O)N(C2CC2)C2CC2)cc2c3c(ncn3C)c(Nc3cc(C)n(C)n3)nc21
In short: as §1

[10] = compound: CCn1cc(-c2ccnc3[nH]c(-c4cccc(CN(C)C)c4)cc23)c(-c2ccc(NC(=O)N(C)C)cc2)n1
In short: as §1

[11] = compound: CN(C)CC(=O)Nc1ccc2[nH]c(=O)c3ccccc3c2c1
In short: as §1

rosiglitazone = compound: CN(CCOC1=CC=C(C=C1)C[C@H]2C(=O)NC(=O)S2)C3=CC=CC=N3 (racemic) [rosiglitazone]
In short: as §1

[12] = compound: CN1C2=C(C3=C1C(=O)N(N=C3)CC4=CC(=CC=C4)N)SC(=C2)S(=O)C
In short: as §1

[13] = compound: CN1CCC(CNc2ccc3ncc(-c4cccc(OC(F)(F)F)c4)n3n2)CC1
In short: as §1

Measured: log2 fold change

CDS2 (UniProt O95674)
inactive: [1] -0.001 | [2] -0.026 | [3] -0.016 | [4] -0.062 | Nexturastat A -0.009 | vemurafenib 0.035 | [5] 0.057 | [6] -0.011 | givinostat 0.021 | barasertib 0.029 | [7] -0.039 | volasertib 0.028 | [8] -0.075 | epoxomicin -0.036 | [9] 0.032 | [10] -0.023 | [11] 0.015 | rosiglitazone -0.003 | [12] 0.046 | [13] -0.009

CHMP4A isoform 2 (UniProt Q9BY43)
inactive: [1] -0.021 | [2] 0.034 | [3] -0.021 | [4] 0.029 | Nexturastat A -0.082 | vemurafenib -0.01 | [5] -0.053 | [6] -0.028 | givinostat -0.027 | barasertib 0.011 | [7] -0.015 | volasertib 0.083 | [8] -0.034 | epoxomicin 0.025 | [9] 0.02 | [10] 0.004 | [11] -0.061 | rosiglitazone -0.028 | [12] -0.022 | [13] -0.042

CEP44 (UniProt Q9C0F1)
inactive: [1] -0.031 | [2] -0.072 | [3] 0.131 | [4] -0.008 | Nexturastat A 0.112 | vemurafenib 0.01 | [5] 0.067 | [6] -0.077 | givinostat -0.016 | barasertib 0.079 | [7] 0.087 | volasertib -0.382 | [8] -0.044 | epoxomicin -0.145 | [9] 0.05 | [10] 0.065 | [11] -0.035 | rosiglitazone 0.167 | [12] 0.143 | [13] -0.083

CDCA3 (UniProt Q99618)
inactive: [1] -0.013 | [2] 0.009 | [3] -0.03 | [4] -0.02 | Nexturastat A 0.041 | vemurafenib -0.038 | [5] -0.043 | [6] -0.023 | givinostat -0.003 | barasertib 0.003 | [7] 0.057 | volasertib 0.088 | [8] -0.053 | epoxomicin 0.009 | [9] 0.059 | [10] -0.025 | [11] 0.002 | rosiglitazone -0.011 | [12] 0.02 | [13] 0.011

CHMP2A (UniProt O43633)
inactive: [1] 0.017 | [2] -0.01 | [3] 0 | [4] 0.047 | Nexturastat A -0.11 | vemurafenib 0.049 | [5] 0.032 | [6] -0.117 | givinostat -0.005 | barasertib 0.02 | [7] -0.059 | volasertib -0.04 | [8] 0.006 | epoxomicin 0.039 | [9] 0.021 | [10] -0.035 | [11] -0.004 | rosiglitazone 0.002 | [12] -0.034 | [13] -0.025

CDYL (UniProt Q9Y232)
inactive: [1] -0.008 | [2] 0.019 | [3] -0.028 | [4] 0.02 | Nexturastat A -0.037 | vemurafenib -0.01 | [5] -0.063 | [6] 0.02 | givinostat 0.005 | barasertib 0.028 | [7] -0.085 | volasertib -0.021 | [8] 0.015 | epoxomicin -0.004 | [9] -0.006 | [10] 0.053 | [11] -0.06 | rosiglitazone 0 | [12] -0.057 | [13] 0.063

CHD6 (UniProt Q8TD26)
inactive: [1] 0.177 | [2] -0.008 | [3] -0.29 | [4] -0.324 | Nexturastat A -0.284 | vemurafenib 0.12 | [5] -0.125 | [6] -0.092 | givinostat -0.104 | barasertib -0.1 | [7] -0.061 | volasertib 0.27 | [8] 0.14 | epoxomicin -0.064 | [9] 0.45 | [10] -0.175 | [11] 0.023 | rosiglitazone 0.004 | [12] -0.031 | [13] -0.003

CDC42EP1 (UniProt Q00587)
inactive: [1] -0.005 | [2] 0.034 | [3] -0.002 | [4] 0.073 | Nexturastat A 0.022 | vemurafenib 0.011 | [5] -0.022 | [6] 0.075 | givinostat 0.15 | barasertib -0.004 | [7] -0.005 | volasertib 0.058 | [8] 0.057 | epoxomicin 0.032 | [10] -0.051 | [11] -0.016 | [12] 0.039
active: [13] -0.554

CENPO (UniProt Q9BU64)
inactive: [1] 0.149 | [2] -0.159 | [3] 0.106 | [4] -0.114 | Nexturastat A -0.058 | vemurafenib -0.087 | [5] 0.003 | [6] 0.11 | givinostat -0.125 | barasertib 0.072 | [7] -0.003 | volasertib 0.022 | [8] -0.062 | epoxomicin 0 | [9] -0.099 | [11] 0.111 | rosiglitazone -0.046 | [12] -0.224

CDK4 (UniProt P11802)
inactive: [1] -0.077 | [2] -0.003 | [3] 0.015 | [4] -0.005 | Nexturastat A 0.166 | vemurafenib -0.161 | [5] -0.128 | [6] -0.025 | givinostat -0.009 | barasertib -0.023 | [7] 0.16 | volasertib 0.071 | [8] 0.117 | epoxomicin 0.16 | [11] -0.085 | [12] 0.146

CHKA (UniProt P35790)
inactive: [1] -0.011 | [2] -0.048 | [3] -0.125 | [4] 0.033 | Nexturastat A 0.036 | vemurafenib -0.017 | [5] 0.019 | [6] -0.164 | barasertib 0.05 | [7] 0.22 | volasertib 0.161 | [8] -0.077 | epoxomicin 0.127 | [10] 0.203 | [11] 0.043 | [12] -0.082 | [13] 0.187
active: givinostat 0.334

CERS2 (UniProt Q96G23)
active: [13] -0.46
inactive: [1] -0.02 | [2] 0.015 | [3] 0.036 | [4] 0.019 | Nexturastat A -0.083 | vemurafenib -0.018 | [5] 0.101 | [6] -0.013 | givinostat -0.038 | barasertib -0.002 | [7] -0.148 | volasertib -0.133 | [8] 0.011 | epoxomicin 0.03 | [10] -0.001 | [11] 0.001 | [12] 0.007

CDK6 (UniProt Q00534)
inactive: [1] -0.037 | [2] 0.01 | [3] 0.044 | [4] 0 | Nexturastat A 0.032 | vemurafenib 0.002 | [5] -0.024 | [6] -0.027 | givinostat -0.019 | barasertib -0.018 | [7] -0.027 | volasertib -0.03 | [8] 0.007 | epoxomicin 0.088 | [10] 0.014 | [11] 0.007 | [12] 0.062 | [13] -0.1

CHAC2 (UniProt Q8WUX2)
inactive: [1] -0.001 | [2] 0.025 | [3] 0.037 | [4] 0.015 | Nexturastat A -0.026 | vemurafenib 0.04 | [5] 0.031 | [6] -0.08 | givinostat 0.007 | barasertib 0.079 | volasertib -0.227 | [8] 0.035 | epoxomicin -0.025 | [10] -0.03 | [11] 0.002 | [12] -0.04 | [13] 0.041
active: [7] -0.343

CHMP4C (UniProt Q96CF2)
inactive: [1] -0.173 | [2] -0.01 | [3] 0.02 | [4] 0.081 | vemurafenib 0.019 | [5] -0.022 | [6] -0.021 | givinostat -0.07 | barasertib 0.01 | [7] -0.23 | volasertib -0.043 | [8] -0.014 | epoxomicin -0.016 | [10] -0.034 | [11] 0.005 | [12] -0.206 | [13] -0.089
active: Nexturastat A 0.443

Copied from above (two entries):
CDYL (UniProt Q9Y232)
inactive: [1] -0.008 | [2] 0.019 | [3] -0.028 | [4] 0.02 | Nexturastat A -0.037 | vemurafenib -0.01 | [5] -0.063 | [6] 0.02 | givinostat 0.005 | barasertib 0.028 | [7] -0.085 | volasertib -0.021 | [8] 0.015 | epoxomicin -0.004 | [9] -0.006 | [10] 0.053 | [11] -0.06 | rosiglitazone 0 | [12] -0.057 | [13] 0.063

CHD6 (UniProt Q8TD26)
inactive: [1] 0.177 | [2] -0.008 | [3] -0.29 | [4] -0.324 | Nexturastat A -0.284 | vemurafenib 0.12 | [5] -0.125 | [6] -0.092 | givinostat -0.104 | barasertib -0.1 | [7] -0.061 | volasertib 0.27 | [8] 0.14 | epoxomicin -0.064 | [9] 0.45 | [10] -0.175 | [11] 0.023 | rosiglitazone 0.004 | [12] -0.031 | [13] -0.003

(continued)

CERT isoform 3 (UniProt Q9Y5P4)
active: [13] 0.279
inactive: [1] 0.154 | [2] -0.103 | [3] -0.039 | [4] -0.001 | Nexturastat A -0.048 | vemurafenib 0.101 | [5] 0.061 | [6] 0.02 | givinostat -0.027 | barasertib -0.002 | [7] 0.06 | volasertib 0.044 | [8] 0.07 | epoxomicin 0.058 | [10] -0.057 | [11] -0.019 | [12] -0.127

CELF2 isoform 3 (UniProt O95319)
inactive: [1] 0.075 | [2] 0.01 | [3] 0.112 | [4] -0.006 | Nexturastat A -0.025 | vemurafenib 0.065 | [5] 0.005 | [6] -0.02 | givinostat -0.008 | barasertib 0.001 | [7] 0.115 | volasertib -0.028 | [8] 0.02 | epoxomicin 0.018 | [10] 0.103 | [11] 0.006 | [12] -0.04 | [13] 0.111
